Paper PMC5577505
No constants are given. Whether binding was seen depends on the method and setting. In cells and extracts the contact can be indirect. Some binding calls cover weakened binding; strength is not graded here.

Chains of the proteins cited; added tags and fusions are not shown.
UniProt P11940: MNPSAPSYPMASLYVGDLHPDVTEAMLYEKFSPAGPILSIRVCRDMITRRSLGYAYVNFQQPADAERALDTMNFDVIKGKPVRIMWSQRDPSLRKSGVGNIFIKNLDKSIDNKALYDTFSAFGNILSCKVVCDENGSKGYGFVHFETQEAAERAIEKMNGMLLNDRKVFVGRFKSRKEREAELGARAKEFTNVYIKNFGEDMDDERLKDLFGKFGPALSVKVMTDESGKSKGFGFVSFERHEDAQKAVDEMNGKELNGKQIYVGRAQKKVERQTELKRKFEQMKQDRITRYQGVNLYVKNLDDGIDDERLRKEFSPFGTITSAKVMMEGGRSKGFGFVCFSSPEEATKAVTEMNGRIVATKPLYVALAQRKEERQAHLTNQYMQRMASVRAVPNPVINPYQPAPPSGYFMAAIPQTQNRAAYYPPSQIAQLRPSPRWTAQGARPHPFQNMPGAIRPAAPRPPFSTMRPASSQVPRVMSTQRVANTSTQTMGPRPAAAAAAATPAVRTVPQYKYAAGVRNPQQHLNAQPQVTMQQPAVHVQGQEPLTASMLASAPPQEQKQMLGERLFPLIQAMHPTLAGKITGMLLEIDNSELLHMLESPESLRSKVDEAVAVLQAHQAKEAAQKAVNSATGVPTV
UniProt O00571: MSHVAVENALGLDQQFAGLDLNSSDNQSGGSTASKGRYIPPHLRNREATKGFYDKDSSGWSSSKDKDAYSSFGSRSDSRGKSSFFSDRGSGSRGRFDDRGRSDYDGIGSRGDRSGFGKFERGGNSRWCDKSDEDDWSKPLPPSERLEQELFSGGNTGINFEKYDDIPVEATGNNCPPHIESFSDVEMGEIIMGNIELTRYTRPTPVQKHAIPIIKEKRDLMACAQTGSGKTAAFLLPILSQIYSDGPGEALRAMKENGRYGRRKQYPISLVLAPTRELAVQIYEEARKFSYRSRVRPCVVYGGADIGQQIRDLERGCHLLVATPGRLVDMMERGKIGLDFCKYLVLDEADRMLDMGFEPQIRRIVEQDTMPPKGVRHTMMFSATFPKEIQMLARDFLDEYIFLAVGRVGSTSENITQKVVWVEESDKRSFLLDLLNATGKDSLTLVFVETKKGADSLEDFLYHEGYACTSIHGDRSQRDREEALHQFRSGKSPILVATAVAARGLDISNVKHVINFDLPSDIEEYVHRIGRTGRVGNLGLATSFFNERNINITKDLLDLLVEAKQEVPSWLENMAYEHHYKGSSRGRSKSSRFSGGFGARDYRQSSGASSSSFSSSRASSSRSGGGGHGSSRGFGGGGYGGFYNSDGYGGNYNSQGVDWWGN

Legend:
[1] = target: poly(A)-binding protein 1 (human (endogenous in MRC5)) (UniProt P11940); test: co-IP; actively growing cells with translation initiation or elongation inhibited; data not shown
[2] = target: poly(A)-binding protein 1 (human (endogenous in MRC5)) (UniProt P11940); test: co-IP; PABP1 precipitated with PABP1 antibody and Protein A-Sepharose from lysates (500 µg protein) of spreading cells, 4°C; resin-only control; immunoblotting
HA-tagged DDX3X = HA-tagged DDX3X (UniProt O00571); test: co-IP; HA-DDX3X precipitated with anti-HA-Agarose from lysates (500 µg protein) of spreading cells, without RNAse1, 2 h at 4°C; immunoblotting

Row | Substance | binding [1] | binding [2] | binding (HA-tagged DDX3X)
1 | DDX3X (endogenous) (from UniProt O00571 1-662) | binds | binds | 
2 | poly(A)-binding protein 1 (from UniProt P11940 1-636) |  |  | binds
